Results as given in publication PMC10975076, “Trypanocidal and Anti-Inflammatory Effects of Three ent-Kaurane Diterpenoids from Gymnocoronis spilanthoides var. subcordata (Asteraceae)” (Pharmaceutics, 2024).

System: splenocytes obtained from BALB/c mice
Test: Cytotoxicity assay on splenocytes, propidium iodide flow cytometry
Type: cell-based
Conditions: selectivity index; for SI Amastigotes: ratio between CC50 and IC50 (amastigotes); for SI Epimastigotes: ratio between CC50 and IC50 (epimastigotes)
Procedure: The cytotoxicity of the isolated compounds was evaluated using splenocytes obtained from BALB/c mice. Primary cell cultures (1.5 × 10^5) were incubated with different concentrations of the isolated phytochemicals (5–200 μg/mL) in RPMI medium supplemented with 10% fetal bovine serum. After 48 h of incubation at 37 °C (5% CO2), the cells were harvested, washed once with PBS and stained with 2.5 μg/mL propidium iodide (PI) for 5 min at room temperature. Subsequently, cell death was assessed via flow cytometry using a BD FACSaria II cytometer. Cells incubated with DMSO were used as 100% viability control, and the death percentage was calculated according to the following formula: {1 − [(% PI^− cells treated)/(% PI^− cells of the viability control)] × 100}.

Compound | SI Amastigotes | SI Epimastigotes
C=C1C(=O)[C@@]23CC[C@@H]4[C@](C)(C(=O)O)CCC[C@@]4(C)[C@]2(O)[C@@H](O)C[C@@H]1C3 (single isomer, unassigned; ent-9) [Compound 1, ent-9α,11α-dihydroxy-15-oxo-kaur-16-en-19-oic acid] | 52.7 | 30.3
C[C@H]1C(=O)[C@@]23CC[C@H]4[C@@](C)(CCC[C@@]4(C)C(=O)O)[C@@H]2[C@@H](O)C[C@@H]1C3 [Compound 2, (16R)-ent-11α-hydroxy-15-oxokauran-19-oic acid] | 1.2 | 1.5
C=C1C(=O)[C@@]23CC[C@H]4[C@@](C)(CCC[C@@]4(C)C(=O)O)[C@@H]2[C@@H](O)C[C@@H]1C3 (single isomer, unassigned; ent-11) [Compound 3, ent-11α-hydroxy-15-oxo-kaur-16-en-19-oic acid] | 0.2 | 3.1
O=C(Cn1ccnc1[N+](=O)[O-])NCc1ccccc1 [Benznidazole, benznidazole, reference compound] | 42.4 | 19.6
